Values from PubChem BioAssay AID504793 (Drosophila RNAi Screening Center, 2011).
Purpose: 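Whole-genome screen for parts of the DNA damage checkpoint at G2/M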 (primary screen). Cells: Drosophila S2R+ cells. Reagent: long dsRNA against Drosophila genes, about 0.25 µg dsRNA per well. Timing: 4 days of dsRNA, then 4 hours of drug before read-out. Challenge: doxorubicin 0.5 µM for 4 hours to cause double-strand breaks, in cells also given a low, harmless dose of dsRNA against nbs to sensitise the assay. Measurement: 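Mitotic index as the number of phospho-histone H3-positive cells in each well following doxorubicin, given as raw counts without normalisation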. Reading the numbers: mitotic cells: higher = more cells in mitosis, weaker G2 arrest. Rule for the call: 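Genes are called active only when high mitotic counts were reproduced with independent dsRNAs and mitosis was checked for delay without damage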. Calls: active = confirmed in follow-up tests; inactive = not confirmed.
The screen tested about 23,000 reagents; below is a random part of those that have a named target and a result. In the full data, 62 (0.27%) are marked active. 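Calls come from follow-up tests whose scores are not deposited, so confirmed genes may have low counts here; counts are not normalised per plate.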 Raw values vary from plate to plate and are shown uncorrected. Entries without a mark were called inactive.

Depletion of path [DRSC10361] came out at: mitotic cells, replicate 1 = 9.
After knock-down of RhoGAP5A [DRSC18294] the results were mitotic cells, replicate 1 = 4.
Silencing of RhoGAP5A [DRSC24778] resulted in: mitotic cells, replicate 1 = 6.
feo [DRSC19398] showed mitotic cells, replicate 1 = 18.
For feo [DRSC23773], the entry reads mitotic cells, replicate 1 = 6.
For CG31871 [DRSC02567] the deposit lists mitotic cells, replicate 1 = 8.
Knock-down of CG31871 [DRSC02571] came out at: mitotic cells, replicate 1 = 3.
With knock-down of CG31871 [DRSC26619] the results were mitotic cells, replicate 1 = 3.
CkIIalpha-i3 [DRSC08651] scored mitotic cells, replicate 1 = 4.
With knock-down of CG34434 [DRSC18134] the results were mitotic cells, replicate 1 = 6.
Silencing of CG34434 [DRSC26923] came out at: mitotic cells, replicate 1 = 6.
After knock-down of CG34434 [DRSC28486] the results were mitotic cells, replicate 1 = 5.
NimC3 [DRSC03556] gave mitotic cells, replicate 1 = 5.
With knock-down of NimC3 [DRSC22528], the screen gave mitotic cells, replicate 1 = 6.
Against NimC3 [DRSC28582], the entry reads mitotic cells, replicate 1 = 5.

Laid out differently: results already given
target gene	amplicon	mitotic cells, replicate 1
CG31871	DRSC02571	3
CG31871	DRSC26619	3
CkIIalpha-i3	DRSC08651	4
CG34434	DRSC18134	6
CG34434	DRSC26923	6

More reagents follow.
Depletion of CG9682 [DRSC16536] came out at: mitotic cells, replicate 1 = 7.
CG9682 [DRSC25635] showed mitotic cells, replicate 1 = 9.
Tm1 [DRSC13082] scored mitotic cells, replicate 1 = 6.
Tm1 [DRSC13083] gave mitotic cells, replicate 1 = 11.
Against Tm1 [DRSC16886] the deposit lists mitotic cells, replicate 1 = 2.
Against Tm1 [DRSC25249], the entry reads mitotic cells, replicate 1 = 1.
Against Tm1 [DRSC39135], the entry reads mitotic cells, replicate 1 = 5.
Depletion of scramb1 [DRSC09724] gave: mitotic cells, replicate 1 = 2.
Knock-down of scramb1 [DRSC10667] resulted in: mitotic cells, replicate 1 = 3.
Against scramb1 [DRSC10668], the entry reads mitotic cells, replicate 1 = 4.
Knock-down of CG31668 [DRSC22584] resulted in: mitotic cells, replicate 1 = 8.
kuk [DRSC15730] showed mitotic cells, replicate 1 = 3.
Against kuk [DRSC26235], the values are mitotic cells, replicate 1 = 4.
bon [DRSC16914] scored mitotic cells, replicate 1 = 5.
Silencing of zormin [DRSC07969] gave: mitotic cells, replicate 1 = 4.
zormin [DRSC08210] gave mitotic cells, replicate 1 = 6.
Silencing of zormin [DRSC08212] came out at: mitotic cells, replicate 1 = 4.
Silencing of zormin [DRSC08213] came out at: mitotic cells, replicate 1 = 5.
For zormin [DRSC08297], the values are mitotic cells, replicate 1 = 6.
With knock-down of zormin [DRSC22483] the results were mitotic cells, replicate 1 = 12.
